# Assay results as given in the supplement of paper PMC8256030.
# This is one part of the list. Single values are uncertain here, since repeats match poorly.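 HEK293T cells were given each compound shortly before transfection with a reporter in which red mCherry is followed by the SARS-CoV-2 frameshift element and then GFP in the −1 frame, so GFP appears only after frameshifting.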
# Key:
# [1] = test system: SARS-CoV-2 -1 PRF reporter mCherry-FSE-GFP(-1); experiment: mCherry (red) intensity as percent of control; higher = higher upstream reporter expression; details: 10 µM; 24 h; HEK293T
# [2] = test system: SARS-CoV-2 -1 PRF reporter mCherry-FSE-GFP(-1); experiment: percent effect, decrease of GFP/mCherry ratio (-1 PRF reporter) relative to controls; higher = stronger frameshift inhibition; details: 10 µM; 24 h; HEK293T
SMILES,mCherry [1],percent effect [2]
O=S(=O)(O)CCS [mesna],91.8%,-0.844%
CCC1(CC)COC(=O)NC1=O [diethadione],113%,-13.8%
CC1(CN2CCC(n3c(=O)[nH]c4ccccc43)CC2)OCc2ccccc2-n2cccc21 (stereo not given) [zaldaride],71.8%,-4.05%
CCCc1cc(=O)[nH]c(=S)[nH]1,114%,-6.52%
CC(C)=CCC/C(C)=C/CC/C(C)=C/CCC(=O)OC/C=C(\C)CCC=C(C)C [gefarnate],98.9%,-2.37%
CC(C)NC[C@H](O)COc1ccc(O)cc1 [prenalterol],83.8%,-0.133%
Nc1ccc(S(=O)(=O)Nc2cncc(Cl)n2)cc1 [sulfaclozine],72.8%,-2.54%
CCCCCCCCOc1ccc(C(=O)c2ccccc2)c(O)c1 [octabenzone],91.1%,8.91%
CN(C)CCC(c1ccccc1)c1ccccn1 (stereo not given) [pheniramine],110%,-1.49%
CCCCCCCCCc1ccc(OCCOCCOCCOCCOCCOCCOCCOCCOCCO)cc1,85%,-6.36%
CCOC(=O)OC(C)OC(=O)[C@@H]1N2C(=O)[C@@H](NC(=O)[C@H](N)c3ccccc3)[C@H]2SC1(C)C (stereo not given in full),127%,3.03%
CCN(CC)C(=O)c1cccnc1 [nikethamide],92%,1.81%
Cn1cncc1[C@@](N)(c1ccc(Cl)cc1)c1ccc2c(c1)c(-c1cccc(Cl)c1)cc(=O)n2C [tipifarnib],58.5%,-3.79%
N[C@@H](Cc1ccc(O)cc1)C(=O)O,119%,1.15%
CCC[C@@H]1C[C@@H](C(=O)N[C@@H]([C@H]2O[C@H](SC)[C@H](O)[C@@H](O)[C@H]2O)[C@H](C)Cl)N(C)C1 [clindamycin],61.9%,-2.41%
CCC(c1ccccc1)c1noc(CCN(CC)CC)n1 (stereo not given),96.5%,-0.453%
NC(=O)c1ccc[n+]([C@@H]2O[C@H](COP(=O)([O-])OP(=O)(O)OC[C@H]3O[C@@H](n4cnc5c(N)ncnc54)[C@H](O)[C@@H]3O)[C@@H](O)[C@H]2O)c1,76.9%,-4.17%
CN(C(=O)C(Cl)Cl)c1ccc(O)cc1 [diloxanide],102%,-4.61%
CCNC(=O)[C@@H]1CCCN1C(=O)[C@H](CCCNC(=N)N)NC(=O)[C@H](CC(C)C)NC(=O)[C@@H](Cc1cn(Cc2ccccc2)cn1)NC(=O)[C@H](Cc1ccc(O)cc1)NC(=O)[C@H](CO)NC(=O)[C@H](Cc1c[nH]c2ccccc12)NC(=O)[C@H](Cc1cnc[nH]1)NC(=O)[C@@H]1CCC(=O)N1 [histrelin],85.6%,-3.62%
N#C/C(=C1/SCC(c2ccccc2Cl)S1)n1ccnc1 (stereo not given) [lanoconazole],95.3%,-6.29%
CC(C)Nc1nc2cc(Cl)c(Cl)cc2n1[C@H]1O[C@@H](CO)[C@H](O)[C@@H]1O [maribavir],101%,-2.25%
Cc1cc(=O)n(-c2ccccc2)n1C [Phenazone],109%,0.048%
COc1ccc2cc([C@H](C)C(=O)O)ccc2c1,124%,-0.00122%
Clc1ccccc1CN1CCc2sccc2C1 [ticlopidine],94.7%,0.194%
CCCCNC(=O)NS(=O)(=O)c1ccc(N)cc1 [carbutamide],80.1%,-13.6%

# Another view of 7 compounds above.
SMILES	mCherry [1]	percent effect [2]
CC1(CN2CCC(n3c(=O)[nH]c4ccccc43)CC2)OCc2ccccc2-n2cccc21 (stereo not given) [zaldaride]	71.8%	-4.05%
Nc1ccc(S(=O)(=O)Nc2cncc(Cl)n2)cc1 [sulfaclozine]	72.8%	-2.54%
CCCCCCCCOc1ccc(C(=O)c2ccccc2)c(O)c1 [octabenzone]	91.1%	8.91%
CCOC(=O)OC(C)OC(=O)[C@@H]1N2C(=O)[C@@H](NC(=O)[C@H](N)c3ccccc3)[C@H]2SC1(C)C (stereo not given in full)	127%	3.03%
Cn1cncc1[C@@](N)(c1ccc(Cl)cc1)c1ccc2c(c1)c(-c1cccc(Cl)c1)cc(=O)n2C [tipifarnib]	58.5%	-3.79%
CCC(c1ccccc1)c1noc(CCN(CC)CC)n1 (stereo not given)	96.5%	-0.453%
COc1ccc2cc([C@H](C)C(=O)O)ccc2c1	124%	-0.00122%
